PubChem BioAssay AID1224830 – NIAID, 2016
The deposit covers about 18,000 reagents; shown is an unselected part. About 2,900 of all reagents (16%) were called active. 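Calls are made per well; low scores hint the gene aids the LPS response, high scores that it dampens it.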 The numbers tell different reagents against one gene apart. Repeated entries: four replicate wells of each siRNA pool. Reagent sequences are not shown.

- Purpose: 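Genes whose knock-down alters the TNF-alpha reporter response to LPS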 (primary screen)
- System: human THP-1 monocytic leukaemia cells, TNF dual-luciferase reporter clone, PMA-differentiated to macrophage-like cells
- Reagent: siRNA pool against human genes, 50 nM
- Timing: LPS for 4 h, given about 3 days after siRNA transfection
- Conditions: bacterial LPS (TLR4 ligand), 10 ng/ml
- Measurement: 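TNF firefly reporter luminescence divided by renilla, normalised to the plate median, then turned into a robust z-score for each replicate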
- Reading the numbers: TNF reporter robust z-score: higher = stronger TNF reporter response to LPS
- Active means: 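Each well counts as active if its z-score is over 2.8 or under -1.5; controls are left without a call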

How did the screen score ZFR2 (zinc finger RNA binding protein 2)?
TNF reporter robust z-score: 0.28; call: inactive

What did the screen give for ZFR2 (zinc finger RNA binding protein 2)?
TNF reporter robust z-score: 0.69; call: inactive

What did the screen give for ZFR2 (zinc finger RNA binding protein 2)?
TNF reporter robust z-score: 0.9; call: inactive

What is on record for MED15 (mediator complex subunit 15)?
TNF reporter robust z-score: -0.34; call: inactive

Which result is listed for MED15 (mediator complex subunit 15)?
TNF reporter robust z-score: -0.24; call: inactive

With MED15 (mediator complex subunit 15), how do the results read?
TNF reporter robust z-score: 0.05; call: inactive

With MED15 (mediator complex subunit 15), what was measured?
TNF reporter robust z-score: 0.01; call: inactive

Which result is listed for PGM3 (phosphoglucomutase 3)?
TNF reporter robust z-score: -1.32; call: inactive

For PGM3 (phosphoglucomutase 3), what does the deposit list?
TNF reporter robust z-score: -0.85; call: inactive

What is on record for PGM3 (phosphoglucomutase 3)?
TNF reporter robust z-score: -0.66; call: inactive

With PGM3 (phosphoglucomutase 3), what was measured?
TNF reporter robust z-score: 1.48; call: inactive

What is on record for FBXL20 (F-box and leucine rich repeat protein 20)?
TNF reporter robust z-score: -0.98; call: inactive

How did the screen score FBXL20 (F-box and leucine rich repeat protein 20)?
TNF reporter robust z-score: 0.53; call: inactive

How did the screen score FBXL20 (F-box and leucine rich repeat protein 20)?
TNF reporter robust z-score: -0.91; call: inactive

How did the screen score FBXL20 (F-box and leucine rich repeat protein 20)?
TNF reporter robust z-score: -0.01; call: inactive

Which result is listed for GAMT (guanidinoacetate N-methyltransferase)?
TNF reporter robust z-score: 0.15; call: inactive

For GAMT (guanidinoacetate N-methyltransferase), what does the deposit list?
TNF reporter robust z-score: 0.08; call: inactive

Which result is listed for GAMT (guanidinoacetate N-methyltransferase)?
TNF reporter robust z-score: -1.24; call: inactive

For GAMT (guanidinoacetate N-methyltransferase), what was measured?
TNF reporter robust z-score: 0.57; call: inactive

With NTSR1 (neurotensin receptor 1), what was measured?
TNF reporter robust z-score: -0.06; call: inactive

For NTSR1 (neurotensin receptor 1), what does the deposit list?
TNF reporter robust z-score: -0.16; call: inactive

For NTSR1 (neurotensin receptor 1), what does the deposit list?
TNF reporter robust z-score: 0.5; call: inactive

What is on record for NTSR1 (neurotensin receptor 1)?
TNF reporter robust z-score: 0.84; call: inactive

With WNK1 (WNK lysine deficient protein kinase 1) #1, what does the deposit list?
TNF reporter robust z-score: 1.03; call: inactive

With WNK1 (WNK lysine deficient protein kinase 1) #1, what was measured?
TNF reporter robust z-score: 0.66; call: inactive

How did the screen score WNK1 (WNK lysine deficient protein kinase 1) #1?
TNF reporter robust z-score: -0.04; call: inactive

For WNK1 (WNK lysine deficient protein kinase 1) #1, what does the deposit list?
TNF reporter robust z-score: 0.19; call: inactive

Which result is listed for WNK1 (WNK lysine deficient protein kinase 1) #2?
TNF reporter robust z-score: -1.02; call: inactive

For WNK1 (WNK lysine deficient protein kinase 1) #2, what does the deposit list?
TNF reporter robust z-score: -1.09; call: inactive

For WNK1 (WNK lysine deficient protein kinase 1) #2, how do the results read?
TNF reporter robust z-score: -0.42; call: inactive

How did the screen score WNK1 (WNK lysine deficient protein kinase 1) #2?
TNF reporter robust z-score: 0.05; call: inactive

With ACVR1B (activin A receptor type 1B), what was measured?
TNF reporter robust z-score: -0.24; call: inactive

What is on record for ACVR1B (activin A receptor type 1B)?
TNF reporter robust z-score: 0.13; call: inactive

What did the screen give for ACVR1B (activin A receptor type 1B)?
TNF reporter robust z-score: -0.81; call: inactive

With ACVR1B (activin A receptor type 1B), what was measured?
TNF reporter robust z-score: 0.17; call: inactive

What did the screen give for ABHD16A (abhydrolase domain containing 16A, phospholipase)?
TNF reporter robust z-score: -1.23; call: inactive

What did the screen give for ABHD16A (abhydrolase domain containing 16A, phospholipase)?
TNF reporter robust z-score: -0.46; call: inactive

Which result is listed for ABHD16A (abhydrolase domain containing 16A, phospholipase)?
TNF reporter robust z-score: -0.56; call: inactive

What is on record for ABHD16A (abhydrolase domain containing 16A, phospholipase)?
TNF reporter robust z-score: -0.7; call: inactive

How did the screen score HES2 (hes family bHLH transcription factor 2)?
TNF reporter robust z-score: 0.41; call: inactive

With HES2 (hes family bHLH transcription factor 2), how do the results read?
TNF reporter robust z-score: 0.31; call: inactive

What did the screen give for HES2 (hes family bHLH transcription factor 2)?
TNF reporter robust z-score: -0.42; call: inactive

For HES2 (hes family bHLH transcription factor 2), what was measured?
TNF reporter robust z-score: -0.62; call: inactive

With SMAD7 (SMAD family member 7), how do the results read?
TNF reporter robust z-score: 0.68; call: inactive

What is on record for SMAD7 (SMAD family member 7)?
TNF reporter robust z-score: 0.77; call: inactive

With SMAD7 (SMAD family member 7), what was measured?
TNF reporter robust z-score: 0.2; call: inactive

Which result is listed for SMAD7 (SMAD family member 7)?
TNF reporter robust z-score: 1.03; call: inactive
